The mice bore no tumour; each value counts animals alive of those treated. Survivors were counted at the toxicity check, usually on the fifth day, unless a day is given; later deaths do not show. Schedule codes are those of the source, read here as Q, the interval in days (D) or hours (H), X, the number of doses. Some structures stand for samples that the source files as different forms (salt, stereo form or complex); doses refer to the form tested. Some entries were tested several times; their values stand side by side, smallest first.
Test system: CD2F1 mice, nontumored, toxicity/survival
Test: NCI In Vivo Anticancer Drug Screen. Data for tumor model Nontumored Animals (Toxicity Test) in CD2F1 (CDF1) mice

Cc1cc(NCCCCCCNc2cc(C)nc3ccc(N)cc23)c2cc(N)ccc2n1
survivor count (dose: 1.1 mg/kg/injection, schedule: Q01DX005 (iv), vehicle: water): 8 of 8
survivor count (dose: 1.2 mg/kg/injection, schedule: Q01DX009 (ip), vehicle: saline with Tween-80): 8 of 8
survivor count (dose: 1.4 mg/kg/injection, schedule: Q01DX005 (iv), vehicle: water): 8 of 8
survivor count (dose: 1.56 mg/kg/injection, schedule: Q01DX009 (ip), vehicle: water): 8 of 8
survivor count (dose: 1.9 mg/kg/injection, schedule: Q01DX005 (iv), vehicle: water): 8 of 8
survivor count (dose: 1.94 mg/kg/injection, schedule: Q01DX005 (iv), vehicle: saline with Tween-80): 10 of 10
survivor count (dose: 1.94 mg/kg/injection, schedule: Q01DX009 (ip), vehicle: saline with Tween-80): 10 of 10
survivor count (dose: 1.94 mg/kg/injection, schedule: Q01DX009 (sc), vehicle: saline with Tween-80): 10 of 10
survivor count (dose: 2.4 mg/kg/injection, schedule: Q01DX009 (ip), vehicle: saline with Tween-80): 8 of 8
survivor count (dose: 2.5 mg/kg/injection, schedule: Q01DX005 (iv), vehicle: water): 8 of 8
survivor count (dose: 2.53 mg/kg/injection, schedule: Q01DX005 (iv), vehicle: water): 10 of 10
survivor count (dose: 2.53 mg/kg/injection, schedule: Q01DX009 (ip), vehicle: water): 10 of 10
survivor count (dose: 2.53 mg/kg/injection, schedule: Q01DX009 (sc), vehicle: water): 10 of 10
survivor count (dose: 2.58 mg/kg/injection, schedule: Q01DX005 (iv), vehicle: saline with Tween-80): 10 of 10
survivor count (dose: 2.58 mg/kg/injection, schedule: Q01DX009 (ip), vehicle: saline with Tween-80): 10 of 10 and 8 of 8
survivor count (dose: 2.58 mg/kg/injection, schedule: Q01DX009 (sc), vehicle: saline with Tween-80): 10 of 10
survivor count (dose: 3.13 mg/kg/injection, schedule: Q01DX009 (ip), vehicle: water): 8 of 8
survivor count (dose: 3.38 mg/kg/injection, schedule: Q01DX005 (iv), vehicle: water): 8 of 10
survivor count (dose: 3.38 mg/kg/injection, schedule: Q01DX009 (ip), vehicle: water): 10 of 10
survivor count (dose: 3.38 mg/kg/injection, schedule: Q01DX009 (sc), vehicle: water): 10 of 10
survivor count (dose: 3.4 mg/kg/injection, schedule: Q01DX005 (iv), vehicle: water): 8 of 8
survivor count (dose: 3.44 mg/kg/injection, schedule: Q01DX005 (iv), vehicle: saline with Tween-80): 10 of 10
survivor count (dose: 3.44 mg/kg/injection, schedule: Q01DX009 (ip), vehicle: saline with Tween-80): 10 of 10
survivor count (dose: 3.44 mg/kg/injection, schedule: Q01DX009 (sc), vehicle: saline with Tween-80): 10 of 10
survivor count (dose: 4.5 mg/kg/injection, schedule: Q01DX005 (iv), vehicle: water): 5 of 8
survivor count (dose: 4.51 mg/kg/injection, schedule: Q01DX005 (iv), vehicle: water): 2 of 10
survivor count (dose: 4.51 mg/kg/injection, schedule: Q01DX009 (ip), vehicle: water): 10 of 10
survivor count (dose: 4.51 mg/kg/injection, schedule: Q01DX009 (sc), vehicle: water): 10 of 10
survivor count (dose: 4.59 mg/kg/injection, schedule: Q01DX005 (iv), vehicle: saline with Tween-80): 10 of 10
survivor count (dose: 4.59 mg/kg/injection, schedule: Q01DX009 (ip), vehicle: saline with Tween-80): 10 of 10
survivor count (dose: 4.59 mg/kg/injection, schedule: Q01DX009 (sc), vehicle: saline with Tween-80): 10 of 10
survivor count (dose: 4.7 mg/kg/injection, schedule: Q01DX009 (ip), vehicle: saline with Tween-80): 8 of 8
survivor count (dose: 6.0 mg/kg/injection, schedule: Q01DX005 (iv), vehicle: water): 1 of 8
survivor count (dose: 6.01 mg/kg/injection, schedule: Q01DX005 (iv), vehicle: water): 0 of 10
survivor count (dose: 6.01 mg/kg/injection, schedule: Q01DX009 (ip), vehicle: water): 10 of 10
survivor count (dose: 6.01 mg/kg/injection, schedule: Q01DX009 (sc), vehicle: water): 10 of 10
survivor count (dose: 6.12 mg/kg/injection, schedule: Q01DX005 (iv), vehicle: saline with Tween-80): 10 of 10
survivor count (dose: 6.12 mg/kg/injection, schedule: Q01DX009 (ip), vehicle: saline with Tween-80): 10 of 10
survivor count (dose: 6.12 mg/kg/injection, schedule: Q01DX009 (sc), vehicle: saline with Tween-80): 10 of 10 and 8 of 8
survivor count (dose: 6.25 mg/kg/injection, schedule: Q01DX009 (ip), vehicle: water): 8 of 8
survivor count (dose: 8.0 mg/kg/injection, schedule: Q01DX005 (iv), vehicle: water): 1 of 8
survivor count (dose: 8.01 mg/kg/injection, schedule: Q01DX005 (iv), vehicle: water): 0 of 10
survivor count (dose: 8.01 mg/kg/injection, schedule: Q01DX009 (ip), vehicle: water): 10 of 10
survivor count (dose: 8.01 mg/kg/injection, schedule: Q01DX009 (sc), vehicle: water): 10 of 10
survivor count (dose: 8.2 mg/kg/injection, schedule: Q01DX005 (iv), vehicle: saline with Tween-80): 10 of 10
survivor count (dose: 8.2 mg/kg/injection, schedule: Q01DX009 (ip), vehicle: saline with Tween-80): 10 of 10
survivor count (dose: 8.2 mg/kg/injection, schedule: Q01DX009 (sc), vehicle: saline with Tween-80): 10 of 10
survivor count (dose: 9.4 mg/kg/injection, schedule: Q01DX009 (ip), vehicle: saline with Tween-80): 8 of 8
survivor count (dose: 10.7 mg/kg/injection, schedule: Q01DX005 (iv), vehicle: water): 0 of 10 and 1 of 8
survivor count (dose: 10.7 mg/kg/injection, schedule: Q01DX009 (ip), vehicle: water): 10 of 10
survivor count (dose: 10.7 mg/kg/injection, schedule: Q01DX009 (sc), vehicle: water): 10 of 10
survivor count (dose: 10.9 mg/kg/injection, schedule: Q01DX005 (iv), vehicle: saline with Tween-80): 10 of 10 and 8 of 8
survivor count (dose: 10.9 mg/kg/injection, schedule: Q01DX009 (ip), vehicle: saline with Tween-80): 10 of 10
survivor count (dose: 10.9 mg/kg/injection, schedule: Q01DX009 (sc), vehicle: saline with Tween-80): 10 of 10 and 8 of 8
survivor count (dose: 12.5 mg/kg/injection, schedule: Q01DX009 (ip), vehicle: water): 8 of 8
survivor count (dose: 14.2 mg/kg/injection, schedule: Q01DX005 (iv), vehicle: water): 0 of 10
survivor count (dose: 14.2 mg/kg/injection, schedule: Q01DX009 (ip), vehicle: water): 10 of 10
survivor count (dose: 14.2 mg/kg/injection, schedule: Q01DX009 (sc), vehicle: water): 10 of 10
survivor count (dose: 14.5 mg/kg/injection, schedule: Q01DX005 (iv), vehicle: saline with Tween-80): 10 of 10 and 8 of 8
survivor count (dose: 14.5 mg/kg/injection, schedule: Q01DX009 (ip), vehicle: saline with Tween-80): 10 of 10 and 8 of 8
survivor count (dose: 14.5 mg/kg/injection, schedule: Q01DX009 (sc), vehicle: saline with Tween-80): 10 of 10 and 8 of 8
survivor count (dose: 18.8 mg/kg/injection, schedule: Q01DX009 (ip), vehicle: saline with Tween-80): 8 of 8
survivor count (dose: 19.0 mg/kg/injection, schedule: Q01DX005 (iv), vehicle: water): 0 of 10
survivor count (dose: 19.0 mg/kg/injection, schedule: Q01DX009 (ip), vehicle: water): 10 of 10
survivor count (dose: 19.0 mg/kg/injection, schedule: Q01DX009 (sc), vehicle: water): 10 of 10
survivor count (dose: 19.4 mg/kg/injection, schedule: Q01DX005 (iv), vehicle: saline with Tween-80): 10 of 10 and 8 of 8
survivor count (dose: 19.4 mg/kg/injection, schedule: Q01DX009 (ip), vehicle: saline with Tween-80): 10 of 10 and 8 of 8
survivor count (dose: 19.4 mg/kg/injection, schedule: Q01DX009 (sc), vehicle: saline with Tween-80): 8 of 8
survivor count (dose: 25.0 mg/kg/injection, schedule: Q01DX009 (ip), vehicle: water): 3 of 8
survivor count (dose: 25.3 mg/kg/injection, schedule: Q01DX005 (iv), vehicle: water): 0 of 10
survivor count (dose: 25.3 mg/kg/injection, schedule: Q01DX009 (ip), vehicle: water): 9 of 10
survivor count (dose: 25.3 mg/kg/injection, schedule: Q01DX009 (sc), vehicle: water): 8 of 8
survivor count (dose: 25.8 mg/kg/injection, schedule: Q01DX005 (iv), vehicle: saline with Tween-80): 10 of 10 and 8 of 8
survivor count (dose: 25.8 mg/kg/injection, schedule: Q01DX009 (ip), vehicle: saline with Tween-80): 10 of 10 and 8 of 8
survivor count (dose: 25.8 mg/kg/injection, schedule: Q01DX009 (sc), vehicle: saline with Tween-80): 10 of 10 and 8 of 8
survivor count (dose: 33.8 mg/kg/injection, schedule: Q01DX005 (iv), vehicle: water): 0 of 10
survivor count (dose: 33.8 mg/kg/injection, schedule: Q01DX009 (ip), vehicle: water): 4 of 8
survivor count (dose: 33.8 mg/kg/injection, schedule: Q01DX009 (sc), vehicle: water): 10 of 10
survivor count (dose: 34.4 mg/kg/injection, schedule: Q01DX005 (iv), vehicle: saline with Tween-80): 8 of 9, 10 of 10, 8 of 8
survivor count (dose: 34.4 mg/kg/injection, schedule: Q01DX009 (ip), vehicle: saline with Tween-80): 8 of 8
survivor count (dose: 34.4 mg/kg/injection, schedule: Q01DX009 (sc), vehicle: saline with Tween-80): 10 of 10 and 8 of 8
survivor count (dose: 37.5 mg/kg/injection, schedule: Q01DX009 (ip), vehicle: saline with Tween-80): 8 of 8
survivor count (dose: 45.0 mg/kg/injection, schedule: Q01DX005 (iv), vehicle: water): 0 of 10
survivor count (dose: 45.0 mg/kg/injection, schedule: Q01DX009 (ip), vehicle: water): 0 of 8
survivor count (dose: 45.0 mg/kg/injection, schedule: Q01DX009 (sc), vehicle: water): 10 of 10
survivor count (dose: 45.9 mg/kg/injection, schedule: Q01DX005 (iv), vehicle: saline with Tween-80): 6 of 10, 7 of 8, 9 of 10
survivor count (dose: 45.9 mg/kg/injection, schedule: Q01DX009 (ip), vehicle: saline with Tween-80): 7 of 8 and 8 of 8
survivor count (dose: 45.9 mg/kg/injection, schedule: Q01DX009 (sc), vehicle: saline with Tween-80): 10 of 10 and 8 of 8
survivor count (dose: 50.0 mg/kg/injection, schedule: Q01DX009 (ip), vehicle: water): 0 of 8
survivor count (dose: 60.0 mg/kg/injection, schedule: Q01DX005 (iv), vehicle: water): 0 of 10
survivor count (dose: 60.0 mg/kg/injection, schedule: Q01DX009 (ip), vehicle: water): 0 of 8
survivor count (dose: 60.0 mg/kg/injection, schedule: Q01DX009 (sc), vehicle: water): 10 of 10
survivor count (dose: 75.0 mg/kg/injection, schedule: Q01DX009 (ip), vehicle: saline with Tween-80): 8 of 8
survivor count (dose: 100.0 mg/kg/injection, schedule: Q01DX009 (ip), vehicle: water): 0 of 8

From PubChem BioAssay AID188 (DTP/NCI, 2004)
